The campaign covered roughly 52,000 sequences. About 210 (0.4%) were called active.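 The calls were made as follows: active = gene whose silencing raises cell survival under the drug, median off-target-corrected z-score across its silencing RNAs 2 or more; inactive = the rest.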 The list shows a part of the results.

The experiment in a line: Resistance to Poly (ADP-Ribose) Polymerase inhibitor: Gene Identification via Genome-wide siRNA Screen. The conditions noted are these: mouse BRCA2 R2336H ES cells, olaparib, CellTiter-Glo viability; hits give high values. The method, boiled down:
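Genome-wide siRNA screen (3 siRNAs/gene, 20 nM) in mouse ES cells carrying hypomorphic BRCA2 R2336H; olaparib 500 nM added 48 h post-transfection, CellTiter-Glo viability 72 h later. Normalized to plate-median negative control; MAD z-scores, gene median, seed-adjusted.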
On to CCCUUAACUCACUGCUCAATT against Edg5, for which the z-score is inactive: -0.715.
To “CGCGGCAUAAACAUGUAAATT against 2010003O18Rik” belongs inactive: 0.416; to GGCACUUCCUCGCUAAUAUTT against Lrp12, inactive: -2.76; to GGAUCAUUCGGACAAAAGUTT against Pax5, inactive: -0.817.
In the case of GAUAUAAAGCCUUCAACACTT against Olfr912 it was inactive: 0.442.
In the case of GGUCACACAUUUUUUGUGATT against F8 it was inactive: -0.351; in that of “GGUUCUUUCGACUUCCUGCTT against 9430093N24Rik”, inactive: 0.758; in that of “GGAAGAUCAGCCAUACUAGTT against A630024B12Rik”, inactive: -1.53.
Consider GGAUUUAAUACCCAGCAGCTT against Nup54, for which the z-score is inactive: -0.456.
On to “CCUUGUAACUCAUUACAUCTT against 2410003P15Rik”, for which the z-score is inactive: 0.083.
For GGUGCUGAUCUACAGGAUGTT against Lrfn2, the z-score was inactive: 0.28.
Take “CCCUUUCCAGCCAGAUCAATT against 1700016K19Rik”: the z-score is inactive: 0.867.
Consider “CCCUAGUGCAGUGAUAACUTT against 1700016D06Rik”, for which the z-score is inactive: -0.645.
Consider GGAGUCCCAGGACAUGAAATT against Pou5f1, for which the z-score was inactive: -0.904.
To GCUAUGAUCGAUCAAAUUCTT against MGC78289 belongs inactive: 1.32; to CCUCAUGGCUUUGGCCAUUTT against Olfr1133, inactive: 0.698; to GGAUUUAGGUUUUGGUUUUTT against Ghitm, inactive: 1.19.
Consider GGCUUUCAAGAUUCAGUGATT against Gsta1, for which the z-score was inactive: -0.93.
Regarding GGAAAUCCUUGACUACAUUTT against Cyp2b19, the z-score is inactive: -1.8.
Turning to GGAUUGUCUUCCUACUGGGTT against Zdhhc4, the z-score is inactive: 0.52.
For GGUGAGCGGCCAGAAGUUUTT against Elk1, the z-score was inactive: -1.63.
Turning to “CGGGAGAUGCGUUUGUUUUTT against 6030458C11Rik”, the z-score was inactive: 0.61.
To CCUUCGAACUCGAAAAAUUTT against Olfr722 belongs inactive: 0.346; to GGACUAGCAAGGCAAGUGATT against Dnase2b, inactive: -1.2.
Regarding GCCGAGAAACAUCCCAAACTT against Zfp313, the z-score is inactive: 1.08.
To GGAGGUGGUGUUUAUACCATT against Scrn2 belongs inactive: 0.616; to “GGAUUCAUGUUCCAUAUGUTT against C330018L13Rik”, inactive: 1.27; to GGAUAAGUGGUCUGCACUATT against Ube2c, inactive: -0.777.

(Values after PubChem BioAssay AID1347423 (Functional Genomics Laboratory (NCATS/FGL), 2020).)
